Data published in PMC10613268, “Shade-induced RTFL/DVL peptides negatively regulate the shade response by directly interacting with BSKs in Arabidopsis” (Nature Communications, 2023).

Sequences of proteins named here, by UniProt entry; tags and fusion partners are left off.
UniProt Q39026: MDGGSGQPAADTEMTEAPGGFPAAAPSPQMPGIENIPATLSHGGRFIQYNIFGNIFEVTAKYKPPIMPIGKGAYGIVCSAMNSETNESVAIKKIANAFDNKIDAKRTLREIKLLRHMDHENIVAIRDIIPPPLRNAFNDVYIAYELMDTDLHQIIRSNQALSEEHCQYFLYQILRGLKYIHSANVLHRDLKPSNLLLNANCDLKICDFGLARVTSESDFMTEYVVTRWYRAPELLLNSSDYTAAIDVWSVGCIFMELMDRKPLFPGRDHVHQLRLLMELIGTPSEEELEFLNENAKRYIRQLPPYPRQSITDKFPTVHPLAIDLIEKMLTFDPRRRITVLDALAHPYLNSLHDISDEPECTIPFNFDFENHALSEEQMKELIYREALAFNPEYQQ

T1: Flag-tagged RTFL18 (transgenic lines used for IP-MS) (Arabidopsis) (UniProt Q6X5V0)
T1 sequence: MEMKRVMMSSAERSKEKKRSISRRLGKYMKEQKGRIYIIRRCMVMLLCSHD

B1: MAPKK5 (protein, UniProt Q8RXG3 1-348)
chain: MKPIQSPSGVASPMKNRLRKRPDLSLPLPHRDVALAVPLPLPPPSSSSSAPASSSAISTNISAAKSLSELERVNRIGSGAGGTVYKVIHTPTSRPFALKVIYGNHEDTVRRQICREIEILRSVDHPNVVKCHDMFDHNGEIQVLLEFMDQGSLEGAHIWQEQELADLSRQILSGLAYLHRRHIVHRDIKPSNLLINSAKNVKIADFGVSRILAQTMDPCNSSVGTIAYMSPERINTDLNHGRYDGYAGDVWSLGVSILEFYLGRFPFAVSRQGDWASLMCAICMSQPPEAPATASQEFRHFVSCCLQSDPPKRWSAQQLLQHPFILKATGGPNLRQMLPPPRPLPSAS
B2: MAPK3 (protein, UniProt Q39023 1-370)
chain: MNTGGGQYTDFPAVETHGGQFISYDIFGSLFEITSKYRPPIIPIGRGAYGIVCSVLDTETNELVAMKKIANAFDNHMDAKRTLREIKLLRHLDHENIIAIRDVVPPPLRRQFSDVYISTELMDTDLHQIIRSNQSLSEEHCQYFLYQLLRGLKYIHSANIIHRDLKPSNLLLNANCDLKICDFGLARPTSENDFMTEYVVTRWYRAPELLLNSSDYTAAIDVWSVGCIFMELMNRKPLFPGKDHVHQMRLLTELLGTPTESDLGFTHNEDAKRYIRQLPNFPRQPLAKLFSHVNPMAIDLVDRMLTFDPNRRITVEQALNHQYLAKLHDPNDEPICQKPFSFEFEQQPLDEEQIKEMIYQEAIALNPTYG

molecular target: T1, Flag-tagged RTFL18 (transgenic lines used for IP-MS) (Arabidopsis); experiment: affinity purification with mass spectrometry; IP-MS using Flag-tagged RTFL18 transgenic Arabidopsis lines

binding, binds:
MAPK6 (from UniProt Q39026 1-395)
B1
B2

Results are given in words; binding and its absence hold for the method and conditions named. In cells and extracts the contact can be indirect. These calls come from enrichment with a bait or labelling near it, and not all partners need be listed. Where a sequence is shown, tags or fusion partners need not be part of it.
